The list does not hold the whole screen: it is rich in T/C values a quarter to a half above the control, in often repeated tests (any T/C) and in doses without a T/C. Other doses and runs of a compound stand elsewhere. T/C gives the treated animals as a percentage of the vehicle group. Some doses have a count of surviving animals in place of a T/C: the source files T/C as zero there, which appears to mark a toxic dose or a test without result, not a measured value. Some survivor counts are full or nearly so, which does not show that the dose was tolerated: survival well below the control is almost never listed, so the zero probably covers shortened survival too. Counts of survivors are from the toxicity check (mostly the fifth day) where no day follows; animals may have died later. Schedule codes are those of the source, read here as Q, the interval in days (D) or hours (H), X, the number of doses. Some doses were run more than once; their values stand side by side, smallest first. Where survival is the endpoint, this PubChem deposit counts one and a half times the control or more as active, and values a quarter to a half above the control carry no call in these data; other NCI protocols may use other cut-offs.
Tested on: P388 leukemia ip, CD2F1 mice, survival T/C
Assay: NCI In Vivo Anticancer Drug Screen. Data for tumor model P388 Leukemia (intraperitoneal) in CD2F1 (CDF1) mice
Conditions: T/C endpoint: median survival time, higher T/C = longer survival
[1] = dose: 100.0 mg/kg/injection, schedule: Q01DX005 (ip), vehicle: Klucel (hydroxypropylcellulose) (HPC)
[2] = dose: 200.0 mg/kg/injection, schedule: Q01DX005 (ip), vehicle: Klucel (hydroxypropylcellulose) (HPC)
[3] = dose: 200.0 mg/kg/injection, schedule: Q01DX009 (ip), vehicle: saline with Tween-80
[4] = dose: 400.0 mg/kg/injection, schedule: Q01DX001 (ip), vehicle: saline with Tween-80
[5] = dose: 200.0 mg/kg/injection, schedule: Q01DX005 (ip), vehicle: saline with Tween-80
[6] = dose: 25.0 mg/kg/injection, schedule: Q01DX009 (ip), vehicle: saline with Tween-80
[7] = dose: 100.0 mg/kg/injection, schedule: Q01DX009 (ip), vehicle: saline with Tween-80
[8] = dose: 50.0 mg/kg/injection, schedule: Q01DX009 (ip), vehicle: saline with Tween-80

Cc1cc(NCCCCCCCNc2cc(C)nc3cc(N)ccc23)c2ccc(N)cc2n1
T/C (dose: 0.78 mg/kg/injection, schedule: Q01DX009 (ip), vehicle: other): 147 % of control | survivor count (dose: 25.0 mg/kg/injection, schedule: Q01DX009 (ip), vehicle: other): 2 of 6 and 3 of 6 | survivor count (dose: 50.0 mg/kg/injection, schedule: Q01DX009 (ip), vehicle: other): 0 of 6 | survivor count (dose: 100.0 mg/kg/injection, schedule: Q01DX009 (ip), vehicle: other): 0 of 6

CCN(CC)c1ccc(NC(C(=O)c2ccccc2)c2ccccc2)cc1 (centres undefined)
survivor count (dose: 25.0 mg/kg/injection, schedule: Q01DX005 (ip), vehicle: Klucel (hydroxypropylcellulose) (HPC)): 0 of 5 | survivor count (dose: 50.0 mg/kg/injection, schedule: Q01DX005 (ip), vehicle: Klucel (hydroxypropylcellulose) (HPC)): 0 of 5 | survivor count [1]: 0 of 5 | survivor count [2]: 0 of 5

COc1ccc2c(c1)C1(C)CCN(C)CC(C1)C2O (centres undefined)
survivor count [3]: 3 of 6

Cc1cccc(Nc2nnc3nc(-c4ccccc4)c(-c4ccccc4)nn23)c1
survivor count (dose: 200.0 mg/kg/injection, schedule: Q01DX001 (ip), vehicle: saline with Tween-80): 6 of 6 | survivor count [4]: 6 of 6

Cc1ccc(S(=O)(=O)N/N=C\c2cccnc2)cc1
T/C (dose: 400.0 mg/kg/injection, schedule: Q01DX009 (ip), vehicle: other): 131 % of control

CCOC(=O)[n+]1ccc(-c2cc[n+](C(=O)OCC)cc2)cc1
survivor count (dose: 50.0 mg/kg/injection, schedule: Q01DX009 (ip), vehicle: saline): 6 of 6

COc1ccc(-n2c(-c3ccc(Cl)cc3)csc2=N)c(OC)c1
survivor count (dose: 200.0 mg/kg/injection, schedule: Q01DX009 (ip), vehicle: saline): 0 of 6

CCCCCCCCC(=O)c1c(OC)oc(/C=N/NC(N)=S)cc1=O
survivor count (dose: 50.0 mg/kg/injection, schedule: Q01DX009 (ip), vehicle: Klucel (hydroxypropylcellulose) (HPC)): 6 of 6

COC(=O)C1CC2C3C=CC(C4C(=O)NC(=O)C34)C12OC (centres undefined)
survivor count [4]: 6 of 6

COc1cc2c(c(OC)c1O)-c1ccc(OC)c(=O)cc1[C@@H](NC(C)=O)CC2
T/C (dose: 2.5 mg/kg/injection, schedule: Q01DX009 (ip), vehicle: Klucel (hydroxypropylcellulose) (HPC)): 146 % of control | T/C (dose: 5.0 mg/kg/injection, schedule: Q01DX009 (ip), vehicle: Klucel (hydroxypropylcellulose) (HPC)): 138 and 141 % of control | survivor count (dose: 40.0 mg/kg/injection, schedule: Q01DX009 (ip), vehicle: Klucel (hydroxypropylcellulose) (HPC)): 5 of 6 | survivor count (dose: 80.0 mg/kg/injection, schedule: Q01DX009 (ip), vehicle: Klucel (hydroxypropylcellulose) (HPC)): 2 of 6

Cc1ccc2c(NCCCCCCCCNc3c4ccccc4nc4c(C)c(C)ccc34)c3ccccc3nc2c1C
T/C (dose: 0.63 mg/kg/injection, schedule: Q01DX009 (ip), vehicle: other): 137 % of control | T/C (dose: 1.25 mg/kg/injection, schedule: Q01DX009 (ip), vehicle: other): 134 % of control | T/C (dose: 2.5 mg/kg/injection, schedule: Q01DX009 (ip), vehicle: other): 141 and 148 % of control | T/C (dose: 5.0 mg/kg/injection, schedule: Q01DX009 (ip), vehicle: other): 145 and 147 % of control | survivor count (dose: 10.0 mg/kg/injection, schedule: Q01DX009 (ip), vehicle: other): 5 of 6 | survivor count (dose: 20.0 mg/kg/injection, schedule: Q01DX009 (ip), vehicle: other): 0 of 6 | survivor count (dose: 40.0 mg/kg/injection, schedule: Q01DX009 (ip), vehicle: other): 0 of 6

COc1cc(NCC(C)(O)CN2CCCC(C)C2C)c2ncccc2c1 (centres undefined)
survivor count (dose: 50.0 mg/kg/injection, schedule: Q01DX005 (ip), vehicle: saline): 3 of 5 | survivor count (dose: 100.0 mg/kg/injection, schedule: Q01DX005 (ip), vehicle: saline): 0 of 5 | survivor count (dose: 200.0 mg/kg/injection, schedule: Q01DX005 (ip), vehicle: saline): 0 of 5

CCOc1ccc(N2C(N)=NC(N)=NC2(C)C)cc1
survivor count (dose: 100.0 mg/kg/injection, schedule: Q01DX005 (ip), vehicle: saline with Tween-80): 0 of 5 | survivor count [5]: 0 of 5

C=C1C(=O)OC2/C=C(\CO)C3OC3C3OC3(C)CC(OC(=O)/C(=C/C)COC(C)=O)C12 (centres undefined)
survivor count [1]: 0 of 6 | survivor count [2]: 0 of 6

COc1ccc(OC)c(NC(=O)Sc2c(Cl)c(Cl)nc(Cl)c2Cl)c1
T/C (dose: 100.0 mg/kg/injection, schedule: Q01DX009 (ip), vehicle: Klucel (hydroxypropylcellulose) (HPC)): 128 % of control | T/C (dose: 200.0 mg/kg/injection, schedule: Q01DX009 (ip), vehicle: Klucel (hydroxypropylcellulose) (HPC)): 126 % of control

COC(=O)Nc1nc2ccc(C(=O)OCC(C)C)cc2[nH]1
survivor count (dose: 400.0 mg/kg/injection, schedule: Q04DX002 (ip), vehicle: saline with Tween-80): 6 of 6

CCN(CC)CCNC(=O)c1cc(Cl)c(N)cc1OC
T/C (dose: 25.0 mg/kg/injection, schedule: Q01DX005 (ip), vehicle: water): 126 % of control | survivor count (dose: 200.0 mg/kg/injection, schedule: Q01DX005 (ip), vehicle: water): 0 of 6

CC(=N/N=C(N)N)/C(C)=N/N=C(N)N
survivor count [5]: 0 of 6

CCN(CC)CCCC(C)Nc1c2ccc(C)cc2nc2ccc(OC)cc12 (centres undefined)
T/C [6]: 131 % of control | survivor count [7]: 1 of 6

COc1ccc2c(c1OC(C)=O)-c1cc(OC(C)=O)cc3c1C(C2)N(C(=O)CBr)CC3 (centres undefined)
survivor count [6]: 6 of 6 | survivor count [8]: 2 of 6

COc1ccc(/C=N/Nc2nnc3c4cccnc4c4ccccc4c3n2)cc1OC
survivor count (dose: 3.12 mg/kg/injection, schedule: Q01DX001 (ip), vehicle: saline with Tween-80): 6 of 6 | survivor count (dose: 6.25 mg/kg/injection, schedule: Q01DX001 (ip), vehicle: saline with Tween-80): 6 of 6 | T/C (dose: 12.5 mg/kg/injection, schedule: Q01DX001 (ip), vehicle: saline with Tween-80): 89, 90, 97, 131 % of control | T/C (dose: 25.0 mg/kg/injection, schedule: Q01DX001 (ip), vehicle: saline with Tween-80): 95, 100, 102, 108 % of control | survivor count (dose: 100.0 mg/kg/injection, schedule: Q01DX001 (ip), vehicle: saline with Tween-80): 0 of 6

C[Si](C)(C)CNCCNC[Si](C)(C)C
survivor count (dose: 240.0 mg/kg/injection, schedule: Q01DX005 (ip), vehicle: saline with Tween-80): 0 of 6

COc1ccc(CCNS(=O)(=O)c2c(C)c(C)c(C)c(C)c2C)cc1OC
survivor count [2]: 6 of 6

CCOC(=O)c1cc2c(=O)oc3ccccc3c2oc1=O
survivor count [8]: 6 of 6 | survivor count [7]: 6 of 6 | survivor count [3]: 6 of 6

Reference: PubChem BioAssay AID330 (DTP/NCI, 2004)
